# Measurements: publication PMC7956269
# B1: Wdr6 (protein, UniProt Q9NNW5 1-1121)
# chain: MDALEDYVWPRATSELILLPVTGLECVGDRLLAGEGPDVLVYSLDFGGHLRMIKRVQNLLGHYLIHGFRVRPEPNGDLDLEAMVAVFGSKGLRVVKISWGQGHFWELWRSGLWNMSDWIWDARWLEGNIALALGHNSVVLYDPVVGCILQEVPCTDRCTLSSACLIGDAWKELTIVAGAVSNQLLVWYPATALADNKPVAPDRRISGHVGIIFSMSYLESKGLLATASEDRSVRIWKVGDLRVPGGRVQNIGHCFGHSARVWQVKLLENYLISAGEDCVCLVWSHEGEILQAFRGHQGRGIRAIAAHERQAWVITGGDDSGIRLWHLVGRGYRGLGVSALCFKSRSRPGTLKAVTLAGSWRLLAVTDTGALYLYDVEVKCWEQLLEDKHFQSYCLLEAAPGPEGFGLCAMANGEGRVKVVPINTPTAAVDQTLFPGKVHSLSWALRGYEELLLLASGPGGVVACLEISAAPSGKAIFVKERCRYLLPPSKQRWHTCSAFLPPGDFLVCGDRRGSVLLFPSRPGLLKDPGVGGKARAGAGAPVVGSGSSGGGNAFTGLGPVSTLPSLHGKQGVTSVTCHGGYVYTTGRDGAYYQLFVRDGQLQPVLRQKSCRGMNWLAGLRIVPDGSMVILGFHANEFVVWNPRSHEKLHIVNCGGGHRSWAFSDTEAAMAFAYLKDGDVMLYRALGGCTRPHVILREGLHGREITCVKRVGTITLGPEYGVPSFMQPDDLEPGSEGPDLTDIVITCSEDTTVCVLALPTTTGSAHALTAVCNHISSVRAVAVWGIGTPGGPQDPQPGLTAHVVSAGGRAEMHCFSIMVTPDPSTPSRLACHVMHLSSHRLDEYWDRQRNRHRMVKVDPETRYMSLAVCELDQPGLGPLVAAACSDGAVRLFLLQDSGRILQLLAETFHHKRCVLKVHSFTHEAPNQRRRLLLCSAATDGSLAFWDLTTMLDHDSTVLEPPVDPGLPYRLGTPSLTLQAHSCGINSLHTLPTREGHHLVASGSEDGSLHVFVLAVEMLQLEEAVGEAGLVPQLRVLEEYSVPCAHAAHVTGLKILSPSIMVSASIDQRLTFWRLGHGEPTFMNSTVFHVPDVADMDCWPVSPEFGHRCALGGQGLEVYNWYD
# B2: Prdm10 (protein, UniProt Q9NQV6 1-1147)
# chain: MDSKDESSHVWPTSAEHEQNAAQVHFVPDTGTVAQIVYTDDQVRPPQQVVYTADGASYTSVDGPEHTLVYIHPVEAAQTLFTDPGQVAYVQQDATAQQASLPVHNQVLPSIESVDGSDPLATLQTPLGRLEAKEEEDEDEDEDTEEDEEEDGEDTDLDDWEPDPPRPFDPHDLWCEECNNAHASVCPKHGPLHPIPNRPVLTRARASLPLVLYIDRFLGGVFSKRRIPKRTQFGPVEGPLVRGSELKDCYIHLKVSLDKGDRKERDLHEDLWFELSDETLCNWMMFVRPAQNHLEQNLVAYQYGHHVYYTTIKNVEPKQELKVWYAASYAEFVNQKIHDISEEERKVLREQEKNWPCYECNRRFISSEQLQQHLNSHDEKLDVFSRTRGRGRGRGKRRFGPGRRPGRPPKFIRLEITSENGEKSDDGTQDLLHFPTKEQFDEAEPATLNGLDQPEQTTIPIPQLPQETQSSLEHEPETHTLHLQPQHEESVVPTQSTLTADDMRRAKRIRLELQNAALQHLFIRKSFRPFKCLQCGKAFREKDKLDQHLRFHGREGNCPLTCDLCNKGFISSTSLESHMKLHSDQKTYSCIFCPESFDRLDLLKDHVAIHINDGYFTCPTCKKRFPDFIQVKKHVRSFHSEKIYQCTECDKAFCRPDKLRLHMLRHSDRKDFLCSTCGKQFKRKDKLREHMQRMHNPEREAKKADRISRSKTFKPRITSTDYDSFTFKCRLCMMGFRRRGMLVNHLSKRHPDMKIEEVPELTLPIIKPNRDYFCQYCDKVYKSASKRKAHILKNHPGAELPPSIRKLRPAGPGEPDPMLSTHTQLTGTIATPPVCCPHCSKQYSSKTKMVQHIRKKHPEFAQLSNTIHTPLTTAVISATPAVLTTDSATGETVVTTDLLTQAMTELSQTLTTDYRTPQGDYQRIQYIPVSQSASGLQQPQHIQLQVVQVASATSPHQSQQSTVDVGQLHDPQPYPQHAIQVQHIQVSGQPLSPSAQQAQQGLSPSHIQGSSSTQGQALQQQQQQQQNSSVQHTYLPSAWNSFRGYSSEIQMMTLPPGQFVITDSGVATPVTTGQVKAVTSGHYVLSESQSELEEKQTSALSGGVQVEPPAHSDSLDPQTNSQQQTTQYIITTTTNGNGSSEVHITKP
# B3: Pip (protein, UniProt P12273 29-146)
# chain: QDNTRKIIIKNFDIPKSVRPNDEVTAVLAVQTELKECMVVKTYLISSIPLQGAFNYKYTACLCDDNPKTFYWDFYTNRTVQIAAVVDVIRELGICPDDAAVIPIKNNRFYTIEILKVE
# B4: Upf1 (protein, UniProt Q92900 1-1129)
# chain: MSVEAYGPSSQTLTFLDTEEAELLGADTQGSEFEFTDFTLPSQTQTPPGGPGGPGGGGAGGPGGAGAGAAAGQLDAQVGPEGILQNGAVDDSVAKTSQLLAELNFEEDEEDTYYTKDLPIHACSYCGIHDPACVVYCNTSKKWFCNGRGNTSGSHIVNHLVRAKCKEVTLHKDGPLGETVLECYNCGCRNVFLLGFIPAKADSVVVLLCRQPCASQSSLKDINWDSSQWQPLIQDRCFLSWLVKIPSEQEQLRARQITAQQINKLEELWKENPSATLEDLEKPGVDEEPQHVLLRYEDAYQYQNIFGPLVKLEADYDKKLKESQTQDNITVRWDLGLNKKRIAYFTLPKTDSGNEDLVIIWLRDMRLMQGDEICLRYKGDLAPLWKGIGHVIKVPDNYGDEIAIELRSSVGAPVEVTHNFQVDFVWKSTSFDRMQSALKTFAVDETSVSGYIYHKLLGHEVEDVIIKCQLPKRFTAQGLPDLNHSQVYAVKTVLQRPLSLIQGPPGTGKTVTSATIVYHLARQGNGPVLVCAPSNIAVDQLTEKIHQTGLKVVRLCAKSREAIDSPVSFLALHNQIRNMDSMPELQKLQQLKDETGELSSADEKRYRALKRTAERELLMNADVICCTCVGAGDPRLAKMQFRSILIDESTQATEPECMVPVVLGAKQLILVGDHCQLGPVVMCKKAAKAGLSQSLFERLVVLGIRPIRLQVQYRMHPALSAFPSNIFYEGSLQNGVTAADRVKKGFDFQWPQPDKPMFFYVTQGQEEIASSGTSYLNRTEAANVEKITTKLLKAGAKPDQIGIITPYEGQRSYLVQYMQFSGSLHTKLYQEVEIASVDAFQGREKDFIILSCVRANEHQGIGFLNDPRRLNVALTRARYGVIIVGNPKALSKQPLWNHLLNYYKEQKVLVEGPLNNLRESLMQFSKPRKLVNTINPGARFMTTAMYDAREAIIPGSVYDRSSQGRPSSMYFQTHDQIGMISAGPSHVAAMNIPIPFNLVMPPMPPPGYFGQANGPAAGRGTPKGKTGRGGRQKNRFGLPGPSQTNLPNSQASQDVASQPFSQGALTQGYISMSQPSQMSQPGLSQPELSQDSYLGDEFKSQIDVALSQDSTYQGERAYQHGGVTGLSQY
# B5: Slc25a3 (protein, UniProt Q00325 50-362)
# chain: AVEEQYSCDYGSGRFFILCGLGGIISCGTTHTALVPLDLVKCRMQVDPQKYKGIFNGFSVTLKEDGVRGLAKGWAPTFLGYSMQGLCKFGFYEVFKVLYSNMLGEENTYLWRTSLYLAASASAEFFADIALAPMEAAKVRIQTQPGYANTLRDAAPKMYKEEGLKAFYKGVAPLWMRQIPYTMMKFACFERTVEALYKFVVPKPRSECSKPEQLVVTFVAGYIAGVFCAIVSHPADSVVSVLNKEKGSSASLVLKRLGFKGVWKGLFARIIMIGTLTALQWFIYDSVKVYFRLPRPPPPEMPESLKKKLGLTQ
# B6: Osbpl6 (protein, UniProt Q9BZF3 1-934)
# chain: MSSDEKGISPAHKTSTPTHRSASSSTSSQRDSRQSIHILERTASSSTEPSVSRQLLEPEPVPLSKEADSWEIIEGLKIGQTNVQKPDKHEGFMLKKRKWPLKGWHKRFFVLDNGMLKYSKAPLDIQKGKVHGSIDVGLSVMSIKKKARRIDLDTEEHIYHLKVKSQDWFDAWVSKLRHHRLYRQNEIVRSPRDASFHIFPSTSTAESSPAANVSVMDGKMQPNSFPWQSPLPCSNSLPATCTTGQSKVAAWLQDSEEMDRCAEDLAHCQSNLVELSKLLQNLEILQRTQSAPNFTDMQANCVDISKKDKRVTRRWRTKSVSKDTKIQLQVPFSATMSPVRLHSSNPNLCADIEFQTPPSHLTDPLESSTDYTKLQEEFCLIAQKVHSLLKSAFNSIAIEKEKLKQMVSEQDHSKGHSTQMARLRQSLSQALNQNAELRSRLNRIHSESIICDQVVSVNIIPSPDEAGEQIHVSLPLSQQVANESRLSMSESVSEFFDAQEVLLSASSSENEASDDESYISDVSDNISEDNTSVADNISRQILNGELTGGAFRNGRRACLPAPCPDTSNINLWNILRNNIGKDLSKVSMPVELNEPLNTLQHLCEEMEYSELLDKASETDDPYERMVLVAAFAVSGYCSTYFRAGSKPFNPVLGETYECIREDKGFRFFSEQVSHHPPISACHCESKNFVFWQDIRWKNKFWGKSMEILPVGTLNVMLPKYGDYYVWNKVTTCIHNILSGRRWIEHYGEVTIRNTKSSVCICKLTFVKVNYWNSNMNEVQGVVIDQEGKAVYRLFGKWHEGLYCGVAPSAKCIWRPGSMPTNYELYYGFTRFAIELNELDPVLKDLLPPTDARFRPDQRFLEEGNLEAAASEKQRVEELQRSRRRYMEENNLEHIPKFFKKVIDANQREAWVSNDTYWELRKDPGFSKVDSPVLW
# B7: Las1l (protein, UniProt Q9Y4W2 1-734)
# chain: MSWESGAGPGLGSQGMDLVWSAWYGKCVKGKGSLPLSAHGIVVAWLSRAEWDQVTVYLFCDDHKLQRYALNRITVWRSRSGNELPLAVASTADLIRCKLLDVTGGLGTDELRLLYGMALVRFVNLISERKTKFAKVPLKCLAQEVNIPDWIVDLRHELTHKKMPHINDCRRGCYFVLDWLQKTYWCRQLENSLRETWELEEFREGIEEEDQEEDKNIVVDDITEQKPEPQDDGKSTESDVKADGDSKGSEEVDSHCKKALSHKELYERARELLVSYEEEQFTVLEKFRYLPKAIKAWNNPSPRVECVLAELKGVTCENREAVLDAFLDDGFLVPTFEQLAALQIEYEDGQTEVQRGEGTDPKSHKNVDLNDVLVPKPFSQFWQPLLRGLHSQNFTQALLERMLSELPALGISGIRPTYILRWTVELIVANTKTGRNARRFSAGQWEARRGWRLFNCSASLDWPRMVESCLGSPCWASPQLLRIIFKAMGQGLPDEEQEKLLRICSIYTQSGENSLVQEGSEASPIGKSPYTLDSLYWSVKPASSSFGSEAKAQQQEEQGSVNDVKEEEKEEKEVLPDQVEEEEENDDQEEEEEDEDDEDDEEEDRMEVGPFSTGQESPTAENARLLAQKRGALQGSAWQVSSEDVRWDTFPLGRMPGQTEDPAELMLENYDTMYLLDQPVLEQRLEPSTCKTDTLGLSCGVGSGNCSNSSSSNFEGLLWSQGQLHGLKTGLQLF
# Biological target: Biotin-FOXC1 (mouse) (UniProt Q61572)
# Test: affinity purification with mass spectrometry; streptavidin-agarose precipitation of biotinylated FOXC1 from nuclear extract of stable HEK293T cells (293T-Biotin-FOXC1); IP350 buffer (350 mM NaCl, 20 mM Tris-HCl pH 7.5, 0.5% NP40, 1 mM EDTA, 10% glycerin); SDS-PAGE, LC-ESI-MS/MS; proteins of the 293T-Biotin control deducted
row,Binder,binding
1,B1,binds
2,B2,binds
3,B3,binds
4,B4,binds
5,B5,binds
6,B6,binds
7,B7,binds

# No constants are given. Whether binding was seen depends on the method and setting. Binding seen in cells or lysates may run through a third protein. Here binding means that the protein was enriched with, or labelled near, the bait; the list need not be complete.
